In all, about 22,000 compounds went through this assay and about 1,100 (5%) were called active. This list was built around the results that the source calls inconclusive (neither active nor inactive); the mix of calls is not that of the screen. No stated cut-off is given here; in the data, active means activity score above about 55%; inconclusive means no clear call, values can overlap the other calls; inactive means below that.
assay: inhibitors of intracellular Trypanosoma cruzi, primary screen, cell-based, plate reader, single point, set 2 (AID 651903); settings: intracellular Trypanosoma cruzi in host cells, at 5.01 µM, stronger effect = higher value;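 further: parasites and compound incubated about four days before reading; 0% = median of neutral control wells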

SMILES | activity score (inhibition)
C[C@@H]1CN([C@H](C)CO)C(=O)Cc2cc(NC(=O)Cc3cn(C)c4ccccc34)ccc2O[C@@H]1CN(C)Cc1ccc(C(F)(F)F)cc1 | inconclusive: 61.3%
CNC[C@@H]1Oc2ccc(NS(=O)(=O)c3ccc(Cl)cc3)cc2C(=O)N([C@H](C)CO)C[C@H]1C | inactive: 2.48%
C[C@H](CO)N1C[C@H](C)[C@H](CN(C)S(=O)(=O)c2ccccc2)Oc2ccc(NC(=O)Nc3ccc(C(F)(F)F)cc3)cc2C1=O | inconclusive: 39.9%
Cc1ccc(S(=O)(=O)N(C)C[C@@H]2Oc3c(NC(=O)Nc4ccc(C(F)(F)F)cc4)cccc3C(=O)N([C@H](C)CO)C[C@@H]2C)cc1 | active: 84.9%
Cc1ccc(S(=O)(=O)N(C)C[C@@H]2Oc3ccc(NC(=O)Nc4ccc(C(F)(F)F)cc4)cc3CC(=O)N([C@H](C)CO)C[C@@H]2C)cc1 | inconclusive: 55.2%
Cc1ccc(S(=O)(=O)Nc2cccc3c2O[C@@H](CN(C)Cc2ccc(C(F)(F)F)cc2)[C@@H](C)CN([C@H](C)CO)C3=O)cc1 | inconclusive: 56.4%
C[C@@H]1CN([C@@H](C)CO)C(=O)c2cc(NC(=O)Nc3ccc(F)cc3)ccc2O[C@@H]1CN(C)Cc1ccc(-c2ccccc2)cc1 | inconclusive: 59%
COc1ccc(S(=O)(=O)Nc2ccc3c(c2)CC(=O)N([C@@H](C)CO)C[C@H](C)[C@H](CN(C)Cc2ccc(C(=O)Nc4ccccc4N)cc2)O3)cc1 | inconclusive: 56.3%
C[C@@H]1CN([C@H](C)CO)C(=O)Cc2cc(NC(=O)Nc3ccc4c(c3)OCO4)ccc2O[C@H]1CN(C)Cc1ccc(-c2ccccc2)cc1 | active: 71.6%
Cc1ccc(S(=O)(=O)Nc2ccc3c(c2)C(=O)N([C@H](C)CO)C[C@H](C)[C@H](CN(C)S(=O)(=O)c2ccc(Cl)cc2)OCCCC[C@@H](C)O3)cc1 | inconclusive: 58.3%
COc1ccc(S(=O)(=O)Nc2ccc3c(c2)CC(=O)N([C@@H](C)CO)C[C@@H](C)[C@@H](CN(C)S(=O)(=O)c2ccc(OC)cc2)O3)cc1 | inconclusive: 55.5%
C[C@H](CO)N1C[C@H](C)[C@H](CN(C)S(=O)(=O)c2ccc(F)cc2)Oc2c(NC(=O)c3nc4ccccc4s3)cccc2C1=O | active: 61.1%
O=C(CCCCC(=O)N/N=C/c1ccccc1[N+](=O)[O-])NO | inactive: 11.9%
Cc1ccc(S(=O)(=O)Nc2ccc3c(c2)CC(=O)N([C@H](C)CO)C[C@@H](C)[C@@H](CN(C)Cc2ccc4c(c2)OCO4)O3)cc1 | inconclusive: 57.9%
C[C@@H]1CN([C@H](C)CO)C(=O)c2cccc(NC(=O)Nc3ccc4c(c3)OCO4)c2O[C@H]1CN(C)Cc1ccc(C(=O)Nc2ccccc2N)cc1 | active: 77%
C[C@H](CO)N1C[C@H](C)[C@H](CN(C)Cc2ccc(-c3ccccc3)cc2)Oc2ccc(NC(=O)Nc3ccccc3)cc2CC1=O | inconclusive: 55.3%
C[C@H](CO)N1C[C@H](C)[C@H](CN(C)C(=O)Nc2ccc(C(F)(F)F)cc2)Oc2c(NC(=O)NC3CCCCC3)cccc2C1=O | active: 74.5%
Cc1noc(C)c1S(=O)(=O)Nc1cccc2c1O[C@@H](CN(C)C(=O)Nc1ccccc1)[C@@H](C)CN([C@@H](C)CO)C2=O | inactive: -4.82%
C[C@@H]1CN([C@H](C)CO)C(=O)c2cccc(NC(=O)c3nc4ccccc4s3)c2O[C@H]1CN(C)Cc1ccc(Oc2ccccc2)cc1 | inconclusive: 55.2%
C[C@@H]1CN([C@@H](C)CO)C(=O)c2cccc(NC(=O)Nc3ccc4c(c3)OCO4)c2O[C@H]1CN(C)Cc1ccc(Cl)c(Cl)c1 | inconclusive: 55.3%
C[C@H](CO)N1C[C@H](C)[C@H](CN(C)Cc2ccc(C(F)(F)F)cc2)Oc2ccc(NC(=O)Cc3ccccc3)cc2CC1=O | inconclusive: 55.3%
C[C@@H]1CN([C@H](C)CO)C(=O)c2cccc(NC(=O)Nc3ccc(C(F)(F)F)cc3)c2O[C@@H]1CN(C)Cc1ccc2c(c1)OCO2 | inconclusive: 52.4%
C[C@H](CO)N1C[C@H](C)[C@@H](CN(C)S(=O)(=O)c2ccc(Cl)cc2)Oc2c(NC(=O)C3CCCCC3)cccc2C1=O | inconclusive: 59.8%
COC(=O)CCCCCCC(=O)N/N=C/c1ccc(O)c(O)c1O | inconclusive: 55%
C[C@H](CO)N1C[C@H](C)[C@H](CN(C)C(=O)Nc2ccc(C(F)(F)F)cc2)Oc2ccc(NC(=O)Nc3ccc(C(F)(F)F)cc3)cc2CC1=O | inconclusive: 56.2%
C[C@@H]1CN([C@@H](C)CO)C(=O)Cc2cc(NC(=O)CCN3CCOCC3)ccc2O[C@@H]1CN(C)CC1CCCCC1 | inactive: 3.43%
Cc1noc(C)c1S(=O)(=O)Nc1ccc2c(c1)C(=O)N([C@@H](C)CO)C[C@H](C)[C@H](CN(C)S(=O)(=O)c1cccs1)O2 | inactive: -2.14%

SMILES | activity score (inhibition)
C[C@H]1CN([C@@H](C)CO)C(=O)c2cc(NS(=O)(=O)c3ccc(Cl)cc3)ccc2O[C@@H]1CN(C)Cc1ccc2c(c1)OCO2 | inconclusive: 59%
C[C@@H]1CN([C@@H](C)CO)C(=O)c2cccc(NC(=O)c3nc4ccccc4s3)c2O[C@H]1CN(C)S(C)(=O)=O | inactive: 9.05%
C[C@@H]1CN([C@H](C)CO)C(=O)c2cccc(N(C)C)c2O[C@H]1CN(C)Cc1ccc2c(c1)OCO2 | inactive: 10.1%
C[C@@H]1CN([C@H](C)CO)C(=O)Cc2cc(NC(=O)Nc3ccc4c(c3)OCO4)ccc2O[C@@H]1CN(C)Cc1ccc(Oc2ccccc2)cc1 | active: 72.8%
C[C@H](CO)N1C[C@H](C)[C@H](CN(C)Cc2ccc(Cl)c(Cl)c2)Oc2ccc(NC(=O)Nc3ccc(F)cc3)cc2CC1=O | inconclusive: 56.1%
C[C@H](CO)N1C[C@H](C)[C@@H](CN(C)S(=O)(=O)c2cn(C)cn2)Oc2c(cccc2N(C)C)C1=O | active: 58.9%
C[C@@H]1CN([C@@H](C)CO)C(=O)c2cccc(NC(=O)Nc3ccc(F)cc3)c2O[C@H]1CN(C)Cc1ccc(-c2ccccc2)cc1 | inconclusive: 56.1%
COc1ccc(S(=O)(=O)N(C)C[C@H]2Oc3ccc(NS(=O)(=O)c4ccc(F)cc4)cc3CC(=O)N([C@H](C)CO)C[C@H]2C)cc1 | inconclusive: 56.5%
C[C@@H]1CCCCO[C@H](CN(C)S(=O)(=O)c2ccc(Cl)cc2)[C@@H](C)CN([C@H](C)CO)C(=O)c2cc(NC(=O)c3ccccc3)ccc2O1 | inconclusive: 56.7%
O=C(N/N=C/[C@@H](O)[C@@H](O)[C@H](O)[C@H](O)CO)c1ccccc1O | inactive: -10.6%
C[C@@H]1CN([C@H](C)CO)C(=O)c2cccc(NC(=O)Nc3cccc4ccccc34)c2O[C@@H]1CN(C)Cc1ccc(C(F)(F)F)cc1 | inconclusive: 55.8%
C[C@@H]1CN([C@H](C)CO)C(=O)c2cccc(NC(=O)CCCCCC(=O)Nc3ccccc3N)c2O[C@@H]1CN(C)Cc1ccc(-c2ccccc2)cc1 | inconclusive: 56.5%
C[C@@H]1CN([C@H](C)CO)C(=O)Cc2cc(NC(=O)Nc3ccc(C(F)(F)F)cc3)ccc2O[C@H]1CN(C)Cc1ccc(-c2ccccc2)cc1 | inconclusive: 55%
C[C@H](CO)N1C[C@H](C)[C@@H](CN(C)Cc2ccncc2)Oc2ccc(NS(C)(=O)=O)cc2C1=O | inactive: -3.03%
C[C@@H]1CN([C@H](C)CO)C(=O)Cc2cc(NC(=O)Nc3cccc4ccccc34)ccc2O[C@@H]1CN(C)Cc1ccc(-c2ccccc2)cc1 | inconclusive: 55.8%
COc1ccc(CN(C)C[C@H]2Oc3ccc(NC(=O)Nc4ccc5c(c4)OCO5)cc3C(=O)N([C@@H](C)CO)C[C@H]2C)cc1 | inactive: 0.548%
COc1ccc(S(=O)(=O)Nc2ccc3c(c2)CC(=O)N([C@H](C)CO)C[C@@H](C)[C@H](CN(C)Cc2ccc(C(F)(F)F)cc2)O3)cc1 | inconclusive: 55.3%
C[C@@H]1CCCCO[C@@H](CN(C)C(=O)Nc2ccc(F)cc2)[C@@H](C)CN([C@H](C)CO)C(=O)c2cc(NC(=O)Nc3ccc4c(c3)OCO4)ccc2O1 | inactive: -7.48%
C[C@@H]1CN([C@H](C)CO)C(=O)Cc2cc(NC(=O)c3ccncc3)ccc2O[C@@H]1CN(C)C(=O)Nc1ccc2c(c1)OCO2 | inactive: -11.4%
C[C@@H]1CCCCO[C@@H](CN(C)Cc2ccc(Cl)c(Cl)c2)[C@@H](C)CN([C@H](C)CO)C(=O)c2cc(NC(=O)Nc3cccc4ccccc34)ccc2O1 | inconclusive: 56.8%
C[C@@H]1CN([C@H](C)CO)C(=O)Cc2cc(NC(=O)C3CCCCC3)ccc2O[C@H]1CN(C)Cc1ccc(Oc2ccccc2)cc1 | active: 76.1%
C[C@H](CO)N1C[C@H](C)[C@H](CN(C)S(=O)(=O)c2cccs2)Oc2ncc(C#Cc3cccc(F)c3)cc2C1=O | active: 71.3%
O=C(CCCCC(=O)N/N=C/c1ccc(O)c(O)c1O)NO | inconclusive: 56.3%
Cc1noc(C)c1S(=O)(=O)Nc1cccc2c1O[C@H](CN(C)Cc1ccc(C(=O)Nc3ccccc3N)cc1)[C@H](C)CN([C@@H](C)CO)C2=O | inconclusive: 57.2%
C=CCOc1ccccc1/C=N/NC(=O)CCCCCCC(=O)OC | inactive: -25.8%
C[C@@H]1CCCCO[C@H](CN(C)Cc2ccc(Cl)c(Cl)c2)[C@@H](C)CN([C@H](C)CO)C(=O)c2cc(NC(=O)CCC(F)(F)F)ccc2O1 | inactive: 24.9%
C[C@@H]1CN([C@H](C)CO)C(=O)c2cc(NC(=O)Nc3ccc(F)cc3)ccc2O[C@H]1CN(C)Cc1ccc(C(=O)O)cc1 | inactive: -6.56%

— PubChem BioAssay AID651903 (Broad Institute, 2012)
